Data: US12558403B2 (GUANGDONG TAIHE MEDICINE SCIENCE & TECHNOLOGY CO., LTD, priority 2020, dated 2026)

B1: TAT-SHP2-N-SH2 fusion protein: TAT penetrating peptide connected to N-terminal SH2 domain of SHP2 through glycine and serine (TAT-Gly-Ser-N-SH2); SEQ ID NO.:4 (protein)
chain: YGRKKRRQRRRGSRWFHPNITGVEAENLLLTRGVDGSFLARPSKSNPGDFTLSVRRNGAVTHIKIQNTGDYYDLYGGEKFATLAELVQYYMEHHGQLKEKNGDVIELKYPLN
modifications: the fusion protein

Experiments:
peptide synthesis = conditions: whole synthesis, 220 nm
T lymphocytes = assay: Entry of FITC-labelled fusion protein and polypeptide into T lymphocytes, confocal microscopy; assay type: cell-based

Molecule	purity (crude or final not stated) (peptide synthesis) [%]	time until which the signal in T cells gradually weakened (T lymphocytes) [h]	time within which most of the substance enters T cells (T lymphocytes) [h]
PEPTIDE1{Y.G.R.K.K.R.R.Q.R.R.R.P.P.V.R.E.S.Q.S.H.P.G.D.F.V.L}$$$$V2.0	96.74	–	–
PEPTIDE1{L.V.F.D.G.P.H.S.Q.S.E.R.V.P.P.R.R.R.Q.R.R.K.K.R.G.Y}$$$$V2.0	98.1	–	–
PEPTIDE1{[dL].[dV].[dF].[dD].G.[dP].[dH].[dS].[dQ].[dS].[dE].[dR].[dV].[dP].[dP].[dR].[dR].[dR].[dQ].[dR].[dR].[dK].[dK].[dR].G.[dY]}$$$$V2.0	96.66	–	–
PEPTIDE1{[dY].G.[dR].[dK].[dK].[dR].[dR].[dQ].[dR].[dR].[dR].[dP].[dP].[dV].[dR].[dE].[dS].[dQ].[dS].[dH].[dP].G.[dD].[dF].[dV].[dL]}$$$$V2.0	99.27	–	–
B1	–	120	≤ 24

For part of these data: HELM strings list residues between dots; [ac] is acetyl, [am] amide, other brackets name non-standard units.
